The record followed here is US7238473.

Numbering of substitutions follows the chain as printed. The exact form of at least one protein or probe is not confirmed. Results from cells or extracts need not show a direct contact. For some assays here: A negative result means that nothing was seen under these conditions. Protein sequences can lack the tags named with them.

Data set [1] deals with T1, TTP C124R (Homo sapiens) (UniProt P26651).
T1 sequence: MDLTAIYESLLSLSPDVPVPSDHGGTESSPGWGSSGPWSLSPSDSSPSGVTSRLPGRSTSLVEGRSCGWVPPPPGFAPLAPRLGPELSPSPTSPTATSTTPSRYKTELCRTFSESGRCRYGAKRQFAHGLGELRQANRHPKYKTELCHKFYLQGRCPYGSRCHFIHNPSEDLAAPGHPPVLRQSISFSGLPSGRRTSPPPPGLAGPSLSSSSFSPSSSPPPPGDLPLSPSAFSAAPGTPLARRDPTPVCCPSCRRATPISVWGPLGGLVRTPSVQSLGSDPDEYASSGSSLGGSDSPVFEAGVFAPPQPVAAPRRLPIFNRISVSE
Kind of data set: EMSA. The following applies: protein in a lysate after overexpression; protein details: C-terminal HA; label: 32P-UTP.

In data set [2] the target is T2, TTP C147R (Homo sapiens) (UniProt P26651).
T2 sequence: T1 sequence with R124C, C147R
Briefly: EMSA. As to conditions: protein in a lysate after overexpression; protein details: C-terminal HA; label: 32P-UTP. Background: A gel shift assay detects complexes by their altered migration in electrophoresis.

The target in data set [3] is T3, TTP (tristetraprolin) wild type (Homo sapiens) (UniProt P26651).
T3 sequence: T1 sequence with R124C
Briefly: binding assay. As to conditions: UV cross-linking, room temperature, heparin and tRNA competitor; EMSA also positive (p199); protein in a lysate after overexpression; label: 32P-UTP.

Data set [4] relates to T4, XC3H-4(121-276) (Xenopus laevis).
T4 sequence: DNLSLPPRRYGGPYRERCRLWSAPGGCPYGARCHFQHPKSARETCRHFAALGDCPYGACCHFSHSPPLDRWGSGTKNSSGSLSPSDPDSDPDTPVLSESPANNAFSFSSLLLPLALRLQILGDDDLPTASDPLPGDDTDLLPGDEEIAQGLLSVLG
Kind of data set: binding assay. The following applies: UV cross-linking; protein in a lysate after overexpression; protein details: C-terminal HA (oocyte extract); label: 32P-UTP.

Data set [5] deals with T5, cMG1 (TIS11b/ERF1 homologue) (Rattus norvegicus) (UniProt P17431).
T5 sequence (looked up, limits assumed): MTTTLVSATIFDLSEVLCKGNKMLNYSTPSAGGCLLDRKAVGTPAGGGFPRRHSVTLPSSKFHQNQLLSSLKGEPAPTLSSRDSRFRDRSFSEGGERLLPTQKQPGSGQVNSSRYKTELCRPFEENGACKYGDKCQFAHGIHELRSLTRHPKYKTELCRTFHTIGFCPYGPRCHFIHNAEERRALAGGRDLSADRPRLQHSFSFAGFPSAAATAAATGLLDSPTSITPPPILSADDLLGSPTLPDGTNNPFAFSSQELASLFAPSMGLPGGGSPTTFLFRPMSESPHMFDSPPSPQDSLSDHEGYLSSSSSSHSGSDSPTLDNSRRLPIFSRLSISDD
Kind of data set: binding assay. The following applies: UV cross-linking; EMSA also positive (p256); protein in a lysate after overexpression; protein details: C-terminal HA; label: 32P-UTP.

Turning to “CUCUAUUUAUAUUUGCACUUAUUAUUUAUUAUUUAUUUAUUAUUUAUUUAUUUGCUUAUGAAUGUAUUUA [TNFa ARE probe 1281-1350]”, the binding result in data set [1] is recorded as “no binding”; in data set [2], “no binding”; in data set [3], “binds”; in data set [4] it was “no binding”; in data set [5], “binds”.
